Assay results from patent publication US10765748B2, “Composition and methods for tethering bioactive peptides to metal oxide surfaces” (University of Akron, priority 2014, dated 2020).

Assay: XPS of immobilized modular peptides on TiO2 substrates and retention in HEPES buffer
Assay type: physicochemical
Settings: high resolution XPS after immobilization
Description: Immobilization of peptides onto TiO2 surface was accomplished by immersing the TiO2 substrates into the corresponding modular peptide solution and incubating it overnight at ambient temperature. The successful immobilization of OGP-Cat and OGP-(Cat)4 onto TiO2-coated substrates were confirmed by XPS. Nitrogen is the element contained only in the modular peptides while not in bare TiO2, as shown in the XPS survey scan of bare TiO2 and OGP-(Cat)4 in FIG. 9A. […] It is noted that the N1s peaks in FIG. 9B are normalized to the highest intensity (O1s) for comparison of the signal to noise ratio.
To quantify the increase in nitrogen due to adsorption of OGP-Cat and OGP-(Cat)4, the nitrogen content (N1s) was normalized with Ti content (Ti2p), and compared with TiO2 substrate after incubation in HEPES buffer overnight (TiO2 as control), as show in Table 2, below.
To study the stability of sequestered modular peptides on targeting surfaces, the modular peptide immobilized TiO2 substrates were immersed in 25 mM HEPES buffer (pH=7.4 at 25° C.) and incubated for different durations. The mean intensity of FITC-labeled OGP-Cat immobilized TiO2 substrates after incubation was quantified to detect the diffusion of FITC-labeled OGP-Cat into surrounding solution. (See FIG. 11). […] Because the N1s signals were assigned to the modular peptides, the decrease of N1s corresponds to the dissociation of adsorbed peptides from TiO2 surface. […] It is believed that the mismatch of retention time for the monovalent ligands may be attributed to the sensitivity difference of XPS and fluorescence microscopy. Nevertheless, the tetravalent ligands OGP-(Cat)4 were clearly present on the TiO2 surface beyond 2 weeks, which is enough to trigger the cascade signaling reactions in adjacent cells.
OGP-(Cat)n and OGP-PEG-(Cat)n (n=1, 2, 4) were dissolved in HEPES buffer at concentrations of 50 μmol/L. Substrates were immersed into the solution (800 μL for 20 mm×20 mm glass slides, 500 μL for 5 mm×5 mm silica wafer) and incubated at ambient temperature overnight. After that, the substrates were rinsed thoroughly with water to wash away the unbounded molecules, dried with nitrogen and subjected to further study.
X-ray photoelectron spectroscopy (XPS) was used to confirm the presence of the OGP peptide on the surface of the substrate by the presence of nitrogen. The XPS measurements were performed on a Kratos AXIS Ultra DLD spectrometer. The X-ray source was monochromated Al Kα, scanning over a binding-energy range of (0 to 700) eV with a dwell time of 100 ms. The analyzer pass energy was 110 eV for the survey spectra and 11 eV for the high-resolution C1s, N1s, and O1s scans. Each spectrum was collected over a 300×700 μm sample area. The results are reported in FIGS. 7, 9A-D, 12, 13, and 17.

O=C(O)CNC(=O)CNC(=O)[C@H](Cc1ccccc1)NC(=O)CNC(=O)[C@H](Cc1ccc(O)cc1)NC(=O)[C@H](CCCCNC(=O)[C@H](CCCCNC(=O)CCc1ccc(O)c(O)c1)NC(=O)CCc1ccc(O)c(O)c1)NC(=O)[C@H](CCCCNC(=O)CCc1ccc(O)c(O)c1)NC(=O)CCc1ccc(O)c(O)c1 [OGP-(Cat)4] (Dihydrocaffeoyl-K(Dihydrocaffeoyl)K(X1)YGFGG-OH)
atomic ratio C2/C1: 0.24
atomic ratio C3/C1: 0.29
atomic ratio C3/N: 0.93
atomic ratio O2/O1: 0.39
atomic ratio O3/O1: 0.21

Peptide text beside a SMILES is read from it. * marks the point of attachment. X1 = O=C(CCc1ccc(O)c(O)c1)NCCCC[C@H](NC(=O)CCc1ccc(O)c(O)c1)C(=O)*; Dihydrocaffeoyl = O=C(CCc1ccc(O)c(O)c1)*
